Consider one substance from publication doi:10.1101/2022.09.25.509437.

Amino acid sequences for entries named in this document (tags omitted). Residues count along the entry.
UniProt P84903, residues 23-685: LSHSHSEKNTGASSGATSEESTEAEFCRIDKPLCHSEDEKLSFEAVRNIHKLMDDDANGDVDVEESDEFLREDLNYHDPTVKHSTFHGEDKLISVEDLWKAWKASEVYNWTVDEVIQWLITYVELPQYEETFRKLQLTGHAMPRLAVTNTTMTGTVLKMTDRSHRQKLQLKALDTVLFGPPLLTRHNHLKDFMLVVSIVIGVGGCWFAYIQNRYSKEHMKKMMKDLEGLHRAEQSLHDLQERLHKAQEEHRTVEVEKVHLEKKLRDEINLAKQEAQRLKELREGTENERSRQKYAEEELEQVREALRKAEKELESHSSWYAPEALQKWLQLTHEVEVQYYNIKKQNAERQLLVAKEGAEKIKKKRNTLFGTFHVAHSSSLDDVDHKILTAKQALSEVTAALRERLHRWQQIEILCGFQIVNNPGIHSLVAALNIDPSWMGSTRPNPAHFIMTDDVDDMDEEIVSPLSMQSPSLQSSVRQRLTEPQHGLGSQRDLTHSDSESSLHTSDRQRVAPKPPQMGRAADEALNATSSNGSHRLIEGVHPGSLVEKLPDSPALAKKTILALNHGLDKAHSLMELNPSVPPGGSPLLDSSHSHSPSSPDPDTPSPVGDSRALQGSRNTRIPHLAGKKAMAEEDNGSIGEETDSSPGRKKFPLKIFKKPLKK

Results are given in words; binding and its absence hold for the method and conditions named. Some entries that bind do so weakly or less than the wild type.

In this experiment the target is STIM1 (stromal interaction molecule 1) (rat (endogenous in RBL-2H3)) (UniProt P84903). The experiment in a line: native gel or EMSA. A general note: Mobility shift assays separate free from complexed probe on a gel.

Turning to “STIM1 (stromal interaction molecule 1) (from UniProt P84903 23-685)”, the binding result is “binds”.
